These results are taken from patent US4740501A (priority 1985, dated 1988).

The data set relates to MMTV proteins. Put plainly: Intracellular MMTV polypeptides (immune precipitation, NaDodSO4-PAGE). The data set is classed as cell-based, mouse. Conditions: 15 uM. The protocol: Intracellular MMTV proteins were identified in monolayer cells after 24 or 48 hour exposure to 15 uM PTT.119. Cultures were labeled with 25 uCi/ml of (^3 H)-leucine for the first 24 hours and were then doubly labeled with (^35 S)-methionine when the spent media were replenished. The relative rates of MMTV polypeptide synthesis were determined using parallel cultures continuously-treated with PTT.119 and pulse labeled for 15 minutes with ^35 S-methionine. Following labeling, the cells were washed twice in cold 0.01M phosphate-buffered saline, pH 7.5, and a solution of protease inhibitors added to yield a final concentration of 1 uM pepstatin, 10 ug soybean trypsin inhibitor/ml, and 1 mM N-ethyl maleimide. Cells were then disrupted in 0.05M phosphate buffer containing 0.1M NaCl and 0.1% Triton X-100, pH 7.5 (Pi/NaCl/Triton). Cells were scraped from the substrate and lysis completed by passing the suspensions through a 27 gauge needle five times. Nuclei were removed by centrifugation at 600×g for 10 minutes at 4° C. and 100 ul aliquots of the supernatants mixed with 10 ul preimmune rabbit sera and 50 ul of 10% […] formalin-fixed and heat-killed.
Following a 15 minute incubation at 26° C., the Staphlococcus aureus (Cowan strain) immunoabsorbent was removed by centrifugation at 10,000×g for 1 minute in a Beckman microfuge. Supernatants (100 ul) were sequentially incubated at 26° C. with 33 ul of rabbit anti-MMTV antisera for 25 minutes and 150 ul of 10% S. aureus for 15 minutes. S. aureus was then pelleted and the precipitate washed five times in Pi/NaCl/Triton. Samples were finally resuspended in 20 ul of 1% NaDodSO4 /2-mercaptoethanol, heated for 1 minute at 100° C. to release MMTV proteins, and centrifuged to remove S. aureus. Supernatants were then subjected to NaDodSO4 -PAGE. Samples were disrupted in 1% NaDodSO4 and 1% B-mercaptoethanol at 100° C. for 1 minute electrophoresed on 10-20% polyacrylamide gradient slab gels using a discontinuous buffer system. Electrophoresis of immune precipitates from cell lysates was carried out in a similar manner using 7.5-15% polyacrylamide gradients. Mr of MMTV-related polypeptides were determined by coelectrophoresis of [^14 C]-protein standards (Mr 30,000 to 50,000 Da; New England Nuclear). Radioactivity was determined and the levels associated with MMTV polypeptide peaks quantitated using a generalized curve-fit computer program.

In the case of `CCOC(=O)[C@H](CCSC)NC(=O)[C@H](Cc1cccc(N(CCCl)CCCl)c1)NC(=O)[C@@H](N)Cc1ccc(F)cc1.Cl` [PTT.119, 3-(p-fluorophenyl)-L-alanyl-3-[m-bis(2-chloroethyl)aminophenyl]-L-alanyl-L-methionine ethyl ester hydrochloride], the “mean dpm of all intracellular MMTV proteins” value runs as follows: (24 hr treatment, 15 min pulse labelling, control 58,422) 105,814 dpm; (24 hr treatment, 24 hr labeling, control 33,881) 43,514 dpm; (48 hr treatment, 24 hr labeling, control 62,745) 78,973 dpm. Further, the “Relative level of MMTV-associated radioactivity (%): p24” value turned out to be 1.5% (24 hr, 15 min pulse labelling, control 1.8); 3.8% (24 hr, 24 hr labeling, control 2.5); 3.3% (48 hr, 15 min pulse labelling, control 3.5); 2.4% (48 hr, 24 hr labeling, control 3.5). The “Relative level of MMTV-associated radioactivity (%): p17, p13” value is 4.7% (24 hr, 15 min pulse labelling, control 3.3); 7.9% (24 hr, 24 hr labeling, control 7.2); 6.3% (48 hr, 15 min pulse labelling, control 3.4); 4.3% (48 hr, 24 hr labeling, control 1.7). In addition, the “Relative level of MMTV-associated radioactivity (%): gp60; gp52” value (from here on “Relative level … (%): gp60; gp52”) (24 hr, 15 min pulse labelling, control 12.7) came out at 10.6%; the “Relative level … (%): gp60; gp52” value (24 hr, 24 hr labeling, control 15.6) is listed as 20.2%; the “Relative level … (%): gp60; gp52” value (48 hr, 15 min pulse labelling, control 8.9) is given as 10.6%; the “Relative level … (%): gp60; gp52” value (48 hr, 24 hr labeling, control 19.6) was determined as 23.6%. Moreover, the “Relative level of MMTV-associated radioactivity (%): Pr gag/pol” value (shortened to “Relative level … (%): Pr gag/pol”) (24 hr, 15 min pulse labelling, control 82.2) stood at 83.2%; the “Relative level … (%): Pr gag/pol” value (24 hr, 24 hr labeling, control 60.9) was found to be 60.9%; the “Relative level … (%): Pr gag/pol” value (48 hr, 15 min pulse labelling, control 84.2) was 80%; the “Relative level … (%): Pr gag/pol” value (48 hr, 24 hr labeling, control 75.2) is 69.7%.
